Some of the results follow. Further columns of the screen follow, without active or inactive calls. The list favours compounds with an active or inconclusive main result. The note in brackets gives the kind of curve behind each potency; many fits are weak.

AC50 data for 61 compounds are collected here from PubChem BioAssay AID493014 (National Center for Advancing Translational Sciences (NCATS), 2011).

The experiment can be described thus: qHTS Assay to Find Inhibitors of Chronic Active B-Cell Receptor Signaling. As to conditions: ABC-DLBCL IkBa-CBG/CBR reporter, luminescence ratio (green luciferase fused to IkBa over red control in TMD8 lymphoma cells), 4 h. The procedure, abridged: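 TMD8 ABC-DLBCL cells carrying doxycycline-inducible green luciferase fused to IkappaBalpha plus unfused red luciferase were exposed to compounds (up to 46 uM) for 4 hrs at 37C. Activity came from the overlap-corrected green/red luminescence ratio.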

Setting [1] is: measured here: CBR red luminescence, cell number.
The mark [2] stands for this setting: measured here: IkBa-CBG green luminescence.

On to `Cc1ccc(C(=O)Nc2nc3ccccc3c(=O)s2)cc1`, for which the AC50 under setting [1] was 6.31 µM [falling, full curve].

`CCCn1c(NC(=O)c2ccc(F)cc2)nc2ccccc21`: the AC50 under setting [1] is 8.91 µM [rising, partial curve, poor fit].

Turning to `CCOCCCNC(=O)c1ccc(N2CCOCC2)c(NS(=O)(=O)c2ccc(OC)cc2)c1`, the AC50 under setting [1] was 4.47 µM [rising, partial curve, poor fit].

With `CS(=O)(=O)c1sc(C#N)c2c1C(=O)CC(c1ccccc1)C2` (centres undefined), the AC50 under setting [1] is 7.08 µM [falling, full curve] and the half-maximal activity concentration (AC50) under setting [2] was 11.2 µM [rising, partial curve, poor fit].

In the case of `Cc1nc(NC(=O)c2cc(-n3cnnc3)ccc2Cl)ccc1Br`, the AC50 under setting [2] is 3.26 µM [rising, full curve, poor fit].

Turning to `COc1cccc(N(C(=O)c2ccco2)C(C(=O)NC2CCCC2)c2cccnc2)c1` (centres undefined), under setting [1], the concentration at half-maximal activity (AC50) is 15.8 µM [falling, single point].

Regarding `CCN(CC)c1nc(C)c2c(c1C#N)CC(C)(C)OC2`, the concentration at half-maximal activity (AC50) under setting [1] is 12.6 µM [rising, partial curve, poor fit].

For `Cc1ccc(C(=O)Nc2cccc3ccccc23)cc1`, the AC50 under setting [1] was 1.26 µM [falling, full curve, poor fit].

Consider `NC(=O)[C@H]1CC2(CC(c3cccc(NC(=O)COc4ccc(Cl)cc4)c3)=NO2)CN1C(=O)c1ccccc1C(=O)c1ccccc1` (some centres undefined), for which, under setting [1], the AC50 was 35.5 µM [falling, single point].

With `CCCc1ccc(OCc2ccc(C(=O)NN)o2)c(OC)c1`, the half-maximal activity concentration (AC50) under setting [1] is 3.98 µM [falling, partial curve, poor fit].

As for `O=C(N/N=C/c1ccccc1)c1ccco1`, the AC50 under setting [1] was 12.6 µM [falling, single point].

As to `COc1cc(OC)nc(NC(=O)CSc2nc3ccccc3o2)n1`, the half-maximal activity concentration (AC50) under setting [1] is 2.31 µM [falling, partial curve].

Turning to `Fc1ccccc1Cn1nnc2c(-n3ccnc3)ncnc21`, the AC50 under setting [1] was 7.08 µM [falling, partial curve, poor fit].

As to `O=c1[nH]c(=O)c2nnc(N/N=C/c3ccccc3F)nc2[nH]1`, under setting [1], the AC50 is 14.1 µM [falling, single point].

`Cc1ccc(NC2=CC(=O)C(=O)c3ccccc32)cc1`: the AC50 is, setting by setting: under setting [1], 5.17 µM [falling, full curve]; under setting [2], 8.2 µM [rising, partial curve, poor fit].

For `CCn1ccc(C(=O)N2CCN(c3ncccn3)CC2)n1`, the AC50 under setting [1] was 0.112 µM [rising, full curve, poor fit].

For `O=C(CSc1ncnc2scc(-c3ccc(F)cc3)c12)c1ccc2c(c1)OCCO2`, the AC50 under setting [1] was 6.51 µM [rising, full curve].

Regarding `Cc1ccc2[nH]cc(CCCN3C(=O)c4ccccc4C3=O)c2c1`, under setting [1], the AC50 was 14.6 µM [rising, partial curve, poor fit].

Consider `N/C(=N\OC(=O)Cc1ccccc1[N+](=O)[O-])c1ccccn1`, for which the AC50 under setting [1] was 20 µM [falling, single point].

Regarding `COCCCn1c(SCC(=O)NCc2ccccc2)nc2ccccc2c1=O`, the AC50 under setting [1] was 0.366 µM [rising, full curve, poor fit].

With `CC(C)CC(=O)Nc1ncc([N+](=O)[O-])s1`, the half-maximal activity concentration (AC50) under setting [1] was 11.2 µM [falling, partial curve].

As to `CC(NC(=O)C1CCN(S(=O)(=O)c2ccc(Br)s2)CC1)c1ccccc1` (centres undefined), the AC50 under setting [1] was 5.62 µM [rising, partial curve, poor fit].

With `Cc1cccc2cc(CN(Cc3ccco3)C(=O)NC3CCCCC3)c(=O)[nH]c12`, the AC50 under setting [1] is 4.11 µM [falling, full curve, poor fit].

For `Cc1cc(C(=O)OCC(=O)Nc2c(Cl)cccc2Cl)c(C)o1`, the AC50 is 29.1 µM [rising, single point] under setting [1] and 25.9 µM [falling, partial curve] under setting [2].

For the compound `CC1(C)Cc2c(sc(NC(=O)c3ccc4ncsc4c3)c2C(N)=O)C(C)(C)N1`, the AC50 under setting [1] was 35.5 µM [falling, single point].

As for `CCOC(=O)CSC1=NC(=O)/C(=C\c2ccc(OC(C)=O)cc2)S1`, under setting [1], the AC50 was 11.2 µM [falling, single point].

As to `O=C1C2CC=CCC2C(=O)N1c1ccc(Cc2ccncc2)cc1` (centres undefined), the AC50 under setting [1] was 5.8 µM [rising, full curve, poor fit].

With `COc1ccccc1-c1c(-c2ccc(O)cc2O)n[nH]c1C(F)(F)F`, the AC50 under setting [1] was 39.8 µM [falling, partial curve, poor fit].

Consider `COc1ccc(N2CCN(C(=O)COC(=O)c3ccc(OC(F)F)cc3)CC2)cc1`, for which the AC50 under setting [1] was 23.1 µM [rising, single point] and the AC50 under setting [2] is 29.1 µM [falling, partial curve, poor fit].

Regarding `N#Cc1cc([N+](=O)[O-])ccc1NC(=O)CSc1n[nH]c(=O)n1C1CC1`, the AC50 under setting [2] is 20.6 µM [falling, single point].

Consider `CSc1nc2oc3c(c2c2nncn12)CC(C)(C)SC3`, for which the AC50 under setting [1] was 5.01 µM [rising, single point].

Take `COc1ccc(C(=O)Nc2ccc3c(c2)C(=O)N(C)C3=O)cc1OC`: under setting [1], the AC50 was 2.51 µM [falling, partial curve, poor fit].

For the compound `O=C(Cn1cnnn1)Nc1ccccc1Cc1ccccc1`, the AC50 under setting [1] is 35.5 µM [rising, partial curve, poor fit].

In the case of `COc1ccc(NS(=O)(=O)c2cc(NC(=O)CC3CCCC3)ccc2N2CCOCC2)cc1`, the AC50 under setting [1] is 6.31 µM [rising, single point].

With `O=C(CSc1nnc(-c2cccnc2)n1Cc1ccco1)c1ccccc1`, under setting [1], the concentration at half-maximal activity (AC50) was 1.58 µM [rising, full curve, poor fit].

Consider `COCc1cc(=O)[nH]c(Nc2nc3ccc(C)cc3o2)n1`, for which the concentration at half-maximal activity (AC50) was 1.84 µM [falling, partial curve, poor fit] under setting [1] and 16.4 µM [falling, single point] under setting [2].

With `COCC1CCN(Cc2cn[nH]c2-c2cc(OC)c(OC)c(OC)c2)CC1`, under setting [1], the AC50 is 12.6 µM [falling, single point].

For `CC(C)C1C(c2ccccc2)NC(c2ccccc2)CC1(O)c1ccc(F)cc1` (centres undefined), the AC50 under setting [1] is 35.5 µM [falling, single point].

With `CCCC(=O)OCC(=O)Nc1ccc2[nH]c(=O)[nH]c2c1`, under setting [1], the AC50 is 6.31 µM [falling, single point].

As to `COc1cccc(Cn2c(NCC(C)C)nc3c2c(=O)n(C)c(=O)n3C)c1`, the AC50 under setting [1] is 18.4 µM [falling, partial curve, poor fit].

In the case of `NC(=O)c1ccsc1NC(=O)COC(=O)c1nc(Cl)ccc1Cl`, the AC50 under setting [1] is 23.1 µM [falling, single point].

Regarding `CNC[C@H](CC1CCCCC1)NC[C@H](NCCC1CCCC1)[C@H](C)O`, under setting [1], the AC50 was 11.2 µM [falling, partial curve, poor fit].

On to `CCc1nnc(NC(=O)c2nc(S(=O)(=O)Cc3ccccc3)ncc2Cl)s1`, for which the AC50 is 35.5 µM [falling, single point] under setting [1] and 15.8 µM [rising, single point] under setting [2].

On to `CCN1C(=O)/C(=C\c2ccc(-c3ccc([N+](=O)[O-])cc3OC)o2)SC1=Nc1cccc(C(=O)O)c1`, for which the AC50 under setting [1] is 3.16 µM [falling, single point].

Take `O=C(N/N=C/c1cc2c(cc1Cl)OCO2)c1ccc2c(c1)OCCO2`: the AC50 under setting [1] is 8.91 µM [falling, partial curve, poor fit].

On to `CN1c2ccsc2C(O)=C(C(=S)Nc2ccc(F)c(Cl)c2)S1(=O)=O`, for which the AC50 under setting [1] was 29.1 µM [falling, single point].

Take `N#C/C(=N\Nc1ccc(F)cc1)C(=O)C1CC1`: under setting [1], the AC50 is 0.891 µM [rising, full curve, poor fit].

Turning to `COc1cccc(NC(=O)CSc2nc3c(sc4ccccc43)c(=O)n2CCN(C)C)c1`, under setting [1], the AC50 was 2.24 µM [falling, partial curve, poor fit].

Turning to `COc1ccc(-n2cc(CNCCc3cnc[nH]3)c(-c3cccc(F)c3)n2)cc1`, the AC50 under setting [1] was 35.5 µM [falling, single point].

`COc1cc(C(=O)N[C@H](C(=O)OCC(=O)NC2CCCCCC2)C(C)C)cc(OC)c1OC`: the AC50 is, setting by setting: under setting [1], 3.66 µM [rising, partial curve, poor fit]; under setting [2], 4.61 µM [falling, single point].

For `CCCCCCCOC(=O)C[N+](C)(C)CCOC1CC2CCC1(C)C2(C)C` (centres undefined), under setting [1], the AC50 is 29.1 µM [falling, single point].

In the case of `CCCCN(CCCC)c1nc(OC)nc(-n2nnc(C(C)=O)c2C)n1`, the AC50 under setting [1] is 15.8 µM [falling, partial curve].

Consider `Cc1ccc(-n2nnnc2SCC(=O)c2ccc3c(c2)NC(=O)CO3)c(C)c1`, for which the AC50 under setting [1] is 0.116 µM [rising, full curve, poor fit].

As to `C=CCn1c(C)cc(C(=O)CSc2nnc(NCc3ccccc3)s2)c1C`, the AC50 is, setting by setting: under setting [1], 17.8 µM [rising, single point]; under setting [2], 17.8 µM [falling, partial curve, poor fit].

For the compound `CCN(Cc1ccccc1)C(=O)Cn1c(=O)oc2ccccc21`, the AC50 under setting [1] was 6.31 µM [rising, single point].

Regarding `CC(C)C(=O)Nc1nc2c(c(=O)[nH]1)CCCC2`, the AC50 under setting [1] is 10 µM [falling, partial curve].

In the case of `CCOc1ccccc1C(=O)OCC(=O)Nc1cc(Cl)ccc1Oc1ccccc1`, the AC50 under setting [1] was 8.2 µM [falling, partial curve, poor fit].

As to `COc1cccc2c1O/C(=N\O)C(C(=O)Nc1cccc(Br)c1)C2` (centres undefined), the half-maximal activity concentration (AC50) under setting [1] was 14.1 µM [falling, single point].

For `Nc1nc(O)c(CC(=O)O)s1`, the concentration at half-maximal activity (AC50) under setting [1] was 35.5 µM [rising, single point].

For `O=C(Cc1ccccc1F)c1ccc(O)cc1O`, the AC50 under setting [1] was 22.4 µM [rising, partial curve, poor fit].

As to `O=C(CCOc1ccccc1)Nc1ccc(Br)cc1`, the AC50 under setting [1] was 2 µM [rising, full curve].

One may read the AC50 as the concentration giving half of the maximal activity seen.
